PubChem BioAssay AID652243, Drosophila RNAi Screening Center | 2013
Test: 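Fly genes required for human androgen receptor driven transcription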 (primary screen). Cells: Drosophila S2R+ cells. Reagent: long dsRNA against Drosophila genes. Duration: 72 h (48 h, then 24 h hormone). Treatment: synthetic androgen R1881 at 10 nM for 24 h. Detection: 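Per-well raw luminescence of the androgen-driven firefly reporter and of the Renilla control, two replicates each, without normalisation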. Scale: firefly reporter light: higher = more light from androgen-responsive reporter; Renilla control light: higher = more constitutive control signal (cell number, transfection). Hit rule: 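Across duplicate plates, a knock-down whose log firefly/Renilla ratio shifted a set fold down or up from the GFP/LacZ control mean was a hit; the downward cut appears as both 1.5 and 3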. Meaning of the calls: active = hit: reporter lowered or raised; inactive = no hit.
In all, the deposit lists about 24,000 reagents; below is an unselected part of those with a known target gene and a result. Over the whole deposit, 246 (1%) are marked active. 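Plates not normalised; calls are printed but the firefly/Renilla ratio behind them is not deposited; fold cut for lowering reported inconsistently.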 The raw values are shown without normalisation. Entries without a mark were called inactive. The numbers tell different reagents against one gene apart. No sequences are given here. Not stated in the record: the amount of reagent.

Which result is listed for CG32669?
firefly reporter light, replicate 1: 1.36e6; firefly reporter light, replicate 2: 7.89e5; Renilla control light, replicate 1: 2.06e6; Renilla control light, replicate 2: 9.85e5

With Vps2 (Vacuolar protein sorting 2) #1, how do the results read?
firefly reporter light, replicate 1: 30128; firefly reporter light, replicate 2: 24896; Renilla control light, replicate 1: 3.18e5; Renilla control light, replicate 2: 2.60e5

Which result is listed for Vps2 (Vacuolar protein sorting 2) #2?
firefly reporter light, replicate 1: 2.03e5; firefly reporter light, replicate 2: 2.65e5; Renilla control light, replicate 1: 4.76e5; Renilla control light, replicate 2: 6.33e5

How did the screen score CG17290 #1?
firefly reporter light, replicate 1: 92508; firefly reporter light, replicate 2: 86108; Renilla control light, replicate 1: 1.36e6; Renilla control light, replicate 2: 1.36e6

What did the screen give for CG17290 #2?
firefly reporter light, replicate 1: 2.68e5; firefly reporter light, replicate 2: 2.06e5; Renilla control light, replicate 1: 8.54e5; Renilla control light, replicate 2: 2.83e5

Which result is listed for CG13384?
firefly reporter light, replicate 1: 6.65e5; firefly reporter light, replicate 2: 1.06e6; Renilla control light, replicate 1: 1.78e6; Renilla control light, replicate 2: 1.71e6

For HP1c (Heterochromatin Protein 1c) #1, how do the results read?
firefly reporter light, replicate 1: 3.40e5; firefly reporter light, replicate 2: 2.85e5; Renilla control light, replicate 1: 2.51e6; Renilla control light, replicate 2: 2.50e6

What is on record for HP1c (Heterochromatin Protein 1c) #2?
firefly reporter light, replicate 1: 3.07e5; firefly reporter light, replicate 2: 3.25e5; Renilla control light, replicate 1: 4.45e5; Renilla control light, replicate 2: 8.51e5

For CG34338, what does the deposit list?
firefly reporter light, replicate 1: 1.21e6; firefly reporter light, replicate 2: 9.76e5; Renilla control light, replicate 1: 2.21e6; Renilla control light, replicate 2: 2.19e6

What is on record for CG33767?
firefly reporter light, replicate 1: 7.38e5; firefly reporter light, replicate 2: 7.95e5; Renilla control light, replicate 1: 1.07e6; Renilla control light, replicate 2: 1.21e6

What did the screen give for CG15550 #1?
firefly reporter light, replicate 1: 1.56e5; firefly reporter light, replicate 2: 1.66e5; Renilla control light, replicate 1: 2.09e6; Renilla control light, replicate 2: 2.99e6

What did the screen give for CG15550 #2?
firefly reporter light, replicate 1: 3.66e5; firefly reporter light, replicate 2: 4.31e5; Renilla control light, replicate 1: 1.04e6; Renilla control light, replicate 2: 1.04e6

Reformatted: entries from further up.
target | reagent | firefly reporter light, replicate 1 | firefly reporter light, replicate 2 | Renilla control light, replicate 1 | Renilla control light, replicate 2
CG15550 | 1 | 1.56e5 | 1.66e5 | 2.09e6 | 2.99e6
CG15550 | 2 | 3.66e5 | 4.31e5 | 1.04e6 | 1.04e6
